Laboratory results taken from the supplement of paper PMC12889115.
This is one part of the list. These are raw signals, not scaled to a control.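 Primary screen: polymyxin B was added at a level permeabilizing Salmonella outer membranes while sparing inner membranes. DMSO wells, both with and without polymyxin B, established maximum growth. Plate-to-plate variation meant each plate was ranked on its own, and the lowest-OD600 compounds were selected as hits.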

System: Salmonella enterica serovar Typhimurium SL1344
Experiment: bacterial growth OD600 after 18 h with compound and polymyxin B; higher = more bacterial growth (less inhibition)
Conditions: 50 µM, Mueller-Hinton broth

**Q.** How did the “bacterial growth OD600” value (polymyxin B 1 µg/mL) turn out when COc1cc(CN2CCN(Cc3ccc(OC)c(C)c3C)C(CCO)C2)ccc1O (stereo not given) was run?
**A.** Its value is 0.956.

**Q.** COc1ccc(-c2nc(CN(C)Cc3nnc(C)o3)c(C)o2)c(OC)c1C was tested. Which “bacterial growth OD600” value (polymyxin B 0.75 µg/mL) did it give?
**A.** The value was 0.81.

**Q.** How did the “bacterial growth OD600” value (polymyxin B 0.75 µg/mL) turn out when COC(C(=O)NCc1c(C)ncc2c1CCN(C(=O)Cc1ccc(F)c(F)c1)C2)c1ccccc1 (stereo not given) was run?
**A.** The value was 0.821.

**Q.** Which “bacterial growth OD600” value (polymyxin B 1 µg/mL) does the source give for COc1ccc(-c2noc(CN3CCC(Sc4ccc(C)cc4)CC3)n2)cc1 here?
**A.** The value was 0.811.

**Q.** Cc1nc(-c2ccncc2)ncc1C(C)NC1CCN(C(C)C)CC1 (stereo not given) was tested. Which “bacterial growth OD600” value (polymyxin B 0.75 µg/mL) did it give?
**A.** Its value is 0.835.

**Q.** For Cc1ccc(CNC(=O)c2ccc(OC3CCN(C(=O)C4CC4)CC3)cc2)s1, which “bacterial growth OD600” value (polymyxin B 1 µg/mL) is on record?
**A.** The value was 1.1.

**Q.** How did the “bacterial growth OD600” value (polymyxin B 0.75 µg/mL) turn out when CC(Cc1cccnc1)NC1CCN(c2ccc(CC(=O)NCCc3cccc(F)c3)cc2)CC1 (stereo not given) was run?
**A.** Its value is 0.877.

**Q.** CC(=O)c1cccc(CN2CCCC(C(=O)Nc3ccc(-n4ccnc4C)cc3)C2)c1 (stereo not given) was tested. Which “bacterial growth OD600” value (polymyxin B 1 µg/mL) did it give?
**A.** The value was 0.826.

**Q.** Which “bacterial growth OD600” value (polymyxin B 1 µg/mL) does the source give for CCS(=O)(=O)c1ncc(CN2CCCCO2)n1CCCc1ccccc1 here?
**A.** The value was 1.1.

**Q.** CCOC(=O)N1CCC(NC2CCN(c3ccc(C(=O)NCCN4CCOCC4)cc3)CC2)CC1 was tested. Which “bacterial growth OD600” value (polymyxin B 0.75 µg/mL) did it give?
**A.** The value was 0.759.

**Q.** Which “bacterial growth OD600” value (polymyxin B 1 µg/mL) does the source give for O=C(c1ccccc1OC1CCN(Cc2ccccn2)CC1)N1CCC[C@H]1CO here?
**A.** Its value is 0.857.

**Q.** Which “bacterial growth OD600” value (polymyxin B 0.75 µg/mL) does the source give for CCn1ccnc1CN1C[C@H]2OC(=O)N(CCc3ccc(OC)cc3)[C@H]2C1 here?
**A.** The value was 0.806.

**Q.** With COCCN1C(=O)NC(Cc2ccc(F)cc2)(C2CCN(C(=O)CCC(C)C)CC2)C1=O (stereo not given) as the molecule, how does the “bacterial growth OD600” value (polymyxin B 0.75 µg/mL) read?
**A.** Its value is 0.852.

**Q.** How did the “bacterial growth OD600” value (polymyxin B 1 µg/mL) turn out when CCn1ccnc1CNCc1ccc2[nH]c3c(c2c1)CCCCC3 was run?
**A.** Its value is 1.05.

**Q.** With O=C(NCCCc1ccccc1)C1CC12CCN(C(=O)c1cccc(-c3ccccc3F)c1)CC2 (stereo not given) as the molecule, how does the “bacterial growth OD600” value (polymyxin B 0.75 µg/mL) read?
**A.** Its value is 0.021.

**Q.** CN(C)CCN(Cc1ccccc1O)CC1CCCN(Cc2ccccc2F)C1 (stereo not given) was tested. Which “bacterial growth OD600” value (polymyxin B 0.75 µg/mL) did it give?
**A.** Its value is 0.811.

**Q.** Which “bacterial growth OD600” value (polymyxin B 0.75 µg/mL) does the source give for CN(C(=O)c1ccccn1)C(Cc1ccccc1)C1CCN(C(=O)c2ccc3c(c2)no[n+]3[O-])CC1 (stereo not given) here?
**A.** Its value is 0.799.

**Q.** Which “bacterial growth OD600” value (polymyxin B 0.75 µg/mL) does the source give for CCOC(=O)C1(Cc2ccc(F)cc2)CCCN(C(=O)c2ccncc2)C1 (stereo not given) here?
**A.** Its value is 0.758.

**Q.** C=CCC(=O)N1CCCC1C(=O)Nc1ccccc1-c1ccc(OC)cc1 (stereo not given) was tested. Which “bacterial growth OD600” value (polymyxin B 1 µg/mL) did it give?
**A.** The value was 0.901.

**Q.** With COCc1ccc(C(=O)N2CCC(C(Cc3ccccc3C)N(C)C(=O)Cn3cccn3)CC2)o1 (stereo not given) as the molecule, how does the “bacterial growth OD600” value (polymyxin B 0.75 µg/mL) read?
**A.** The value was 0.836.

**Q.** For Cc1cc(C)n(Cc2cc(C(=O)N(C)Cc3n[nH]c4c3CCCC4)n[nH]2)n1, which “bacterial growth OD600” value (polymyxin B 1 µg/mL) is on record?
**A.** Its value is 0.892.

**Q.** Cc1cc(C)n(-c2cccc(CN(C)C(=O)c3ccc(-n4cc(NC(=O)c5ccoc5)cn4)cc3)c2)n1 was tested. Which “bacterial growth OD600” value (polymyxin B 0.75 µg/mL) did it give?
**A.** Its value is 0.583.

**Q.** For CCc1cc(C(=O)NC(C)c2cnc(-c3ccncc3)nc2C)n(C)n1 (stereo not given), which “bacterial growth OD600” value (polymyxin B 1 µg/mL) is on record?
**A.** The value was 1.31.

**Q.** For O=C(NC1CCOC1)C1CCN(c2nc(-c3ccccc3)nc3c2CCC3)CC1 (stereo not given), which “bacterial growth OD600” value (polymyxin B 0.75 µg/mL) is on record?
**A.** The value was 0.822.

**Q.** How did the “bacterial growth OD600” value (polymyxin B 1 µg/mL) turn out when Cc1nccn1CCCNC(=O)c1cn(Cc2c(F)cccc2F)nn1 was run?
**A.** The value was 1.22.

**Q.** Which “bacterial growth OD600” value (polymyxin B 1 µg/mL) does the source give for O=C(CC(c1ccccc1)c1ccccc1Cl)NCc1ccon1 (stereo not given) here?
**A.** The value was 0.673.

**Q.** With O=C(Nc1ccnn1C1CCN(CCCn2cccn2)CC1)C1CCOC1 (stereo not given) as the molecule, how does the “bacterial growth OD600” value (polymyxin B 1 µg/mL) read?
**A.** Its value is 1.27.

**Q.** For CCC1CN(CC(=O)N2CCN(CC(=O)N(C)C)CC2)Cc2ccc(Cl)cc2O1 (stereo not given), which “bacterial growth OD600” value (polymyxin B 0.75 µg/mL) is on record?
**A.** The value was 1.03.

**Q.** COCCCNC(=O)c1cnn(-c2nccc(-c3cc(OC)ccc3OC)n2)c1C1CC1 was tested. Which “bacterial growth OD600” value (polymyxin B 0.75 µg/mL) did it give?
**A.** Its value is 0.988.

**Q.** CCN1CCC(C(=O)Nc2ccc(-n3nc(C)cc3C)cc2)CC1 was tested. Which “bacterial growth OD600” value (polymyxin B 1 µg/mL) did it give?
**A.** Its value is 0.931.
